This note sets out measurements from PMC7819943, “Rice protein-binding microarrays: a tool to detect cis-acting elements near promoter regions in rice”.

Chains of the proteins cited; added tags and fusions are not shown.
UniProt Q0JBA9, entry or part of it: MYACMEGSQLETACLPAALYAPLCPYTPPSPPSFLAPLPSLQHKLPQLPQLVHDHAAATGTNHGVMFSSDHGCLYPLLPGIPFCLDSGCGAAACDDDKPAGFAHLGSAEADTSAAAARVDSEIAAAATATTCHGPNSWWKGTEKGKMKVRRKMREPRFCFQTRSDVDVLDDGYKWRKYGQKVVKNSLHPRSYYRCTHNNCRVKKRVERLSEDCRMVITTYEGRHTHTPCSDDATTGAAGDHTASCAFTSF

Some of the results follow.

The test deals with OsWRKY34 (Oryza sativa, UniProt Q0JBA9 1-250). Description: protein-binding microarray (RPBM); PBS, 2% BSA, 51.3 ng/ul salmon testes DNA, 50 uM zinc acetate, 200 nM TF, 25 C, 1 h; high values mean tight binding. The conditions noted are these: protein: recombinant; tags: N-terminal polyhistidine and DsRed monomer fusion (pET32a); label: CyDye5-dUTP incorporated in the synthesized complementary strand; 3' TTTTT single-stranded linker to array surface; dsDNA, one strand shown. The gist of the method: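 Transcription factors, each fused N-terminally to a polyhistidine tag and DsRed, were expressed in E. coli BL21-CodonPlus and purified on Ni–NTA. A custom Agilent array was made double-stranded by primer extension with Cy5-dUTP and blocked with 2% BSA. It was incubated with 200 nM protein in PBS, 2% BSA, salmon testes DNA and 50 µM zinc acetate at 25 °C for 1 h, then washed. The binding signal is per-feature fluorescence intensity (arbitrary units) read on an Axon 4000B scanner.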
Take “AACTTCTTTCTCTTAACTCCACCTGCAACAGTACTCCACCCGGAGTCACCTAGTGCAG”: the binding signal is 8380 fluorescence intensity (a.u.).

Take “GTGGGTCATTAATAAATACATCATATCTCTTCTCTACCAACGGAGTCACCTAGTGCAG”: the binding signal was 8830 fluorescence intensity (a.u.).

Consider “GCTGCTTCCCCAACATATATGCATGGACAAATGGACCGATCGGAGTCACCTAGTGCAG”, for which the binding signal was 8170 fluorescence intensity (a.u.).

With “GACTTGTTTCCTCTCCCGCGCCGCCGCCGTTCCGTTTTTTCGGAGTCACCTAGTGCAG”, the binding signal was 11100 fluorescence intensity (a.u.).

With “GGCGAGGTGGTGTTGAGGGATTTTGGTGGTGTGTTGGAGACGGAGTCACCTAGTGCAG”, the binding signal was 12600 fluorescence intensity (a.u.).

Turning to “ACTATCCCCAGGGTCATTTTCCCAGTCAAGCCACCGTAATCGGAGTCACCTAGTGCAG”, the binding signal was 9700 fluorescence intensity (a.u.).

For “AGCGTGCCACGATGAATATCCAAAATTTTATCCACCTTTTCGGAGTCACCTAGTGCAG”, the binding signal was 8600 fluorescence intensity (a.u.).

Regarding “TTTGCTGCAGTATTTTGCTCTGCTCTGCTTCTATGCTTGACGGAGTCACCTAGTGCAG”, the binding signal was 8600 fluorescence intensity (a.u.).

“CCGTCGTCTTCACCTTCGCCACCGTCACCGCCGCCGCCGCCGGAGTCACCTAGTGCAG”: the binding signal was 13400 fluorescence intensity (a.u.).

Consider “GCCAACCAAGCTCGAGCCAAGCCCGAGCTTTTTTTCCACCCGGAGTCACCTAGTGCAG”, for which the binding signal is 8450 fluorescence intensity (a.u.).

For the sequence “ACGTTTTTATTCCCAACCCTGACCGAAGTGCCACAACCATCGGAGTCACCTAGTGCAG”, the binding signal is 8720 fluorescence intensity (a.u.).

For the sequence “AAGTCATACCACATTATCACAGCTCGTAACATAAAACTTCCGGAGTCACCTAGTGCAG”, the binding signal was 9360 fluorescence intensity (a.u.).

In the case of “TAATTCACTCTTTCTTTTTTCATGCATGTTTATGTTTACGCGGAGTCACCTAGTGCAG”, the binding signal is 8720 fluorescence intensity (a.u.).

Take “CCAACCTGAACTTCTGCATACATGTACACACCCACAGTCACGGAGTCACCTAGTGCAG”: the binding signal was 8180 fluorescence intensity (a.u.).

Regarding “AGTAAAGTCCATCACCGGTCCCTAAACTTGTACCGCTATGCGGAGTCACCTAGTGCAG”, the binding signal was 8810 fluorescence intensity (a.u.).

As for “CCATCGTACATGTTGACCACTGGCTTGTTGACTTCTCCTCCGGAGTCACCTAGTGCAG”, the binding signal was 9880 fluorescence intensity (a.u.).

Turning to “TGCCGCCTGCTTCTCTCTTCGCCCACCGGCTAAGCAACATCGGAGTCACCTAGTGCAG”, the binding signal is 9730 fluorescence intensity (a.u.).

“CGCTACTAGTTATGGTCCGTTTGCAAAAATCATGGGGACTCGGAGTCACCTAGTGCAG”: the binding signal was 8350 fluorescence intensity (a.u.).

As to “ATCCAAGGTGCTTATCAGATATTCAGATGCTGGGTTTTCTCGGAGTCACCTAGTGCAG”, the binding signal was 9230 fluorescence intensity (a.u.).

In the case of “TAAAGTCTTAACTTGTGTGGGATGGGATATTGCATGATGACGGAGTCACCTAGTGCAG”, the binding signal is 8260 fluorescence intensity (a.u.).

As for “TCCACTCTCGAGCTTAATTCATCGTTTCCTTCGTCTTTCCCGGAGTCACCTAGTGCAG”, the binding signal is 10300 fluorescence intensity (a.u.).

As for “TTCACACGTTGTTATGCATAGGTATTTTTGCTAGTCAAGTCGGAGTCACCTAGTGCAG”, the binding signal was 8720 fluorescence intensity (a.u.).

With “TTTTTTTTACCGGCCTAGTTGACCACCAACCAAGCAGTACCGGAGTCACCTAGTGCAG”, the binding signal is 10100 fluorescence intensity (a.u.).

With “CTTGCTGGTGATACGTACTCGTATAATTATTAATCCTATCCGGAGTCACCTAGTGCAG”, the binding signal was 9860 fluorescence intensity (a.u.).

As for “TTTTAACCCTAGGATCCAAATATCATGCACTCCTTTTTTTCGGAGTCACCTAGTGCAG”, the binding signal is 8820 fluorescence intensity (a.u.).

For “TTTCATCTACCTTTGTTTTATTCTGTCGTACTTGGGCTTGCGGAGTCACCTAGTGCAG”, the binding signal was 8340 fluorescence intensity (a.u.).

For the sequence “AAAAATTTTTGGAGGCGGAGGGAAGGGGTGGTGTTGGGGTCGGAGTCACCTAGTGCAG”, the binding signal was 10200 fluorescence intensity (a.u.).

“GTTTGTTTCCTACTAGTGTGCTTCTACTAATCTTGCATTCCGGAGTCACCTAGTGCAG”: the binding signal is 9080 fluorescence intensity (a.u.).

For the sequence “TAAATTTAGTCATCTCTAGTTGCTTTTACGTCTCCTGAATCGGAGTCACCTAGTGCAG”, the binding signal is 8230 fluorescence intensity (a.u.).

Turning to “CATATCTGCTCCGTGCCATGGTTCTTCTGTCTGGAAAGACCGGAGTCACCTAGTGCAG”, the binding signal was 13900 fluorescence intensity (a.u.).

For the sequence “GTTGTCATTGTCGCGTCGTCACCTCTGATTGCGTCATTCCCGGAGTCACCTAGTGCAG”, the binding signal was 16500 fluorescence intensity (a.u.).

With “TGAGGGACCTTCGGTGTACTTTTTCCCCGATCCTACACATCGGAGTCACCTAGTGCAG”, the binding signal was 8580 fluorescence intensity (a.u.).

For the sequence “TGTTATCAGCTTTTCTAACCTTTGCGTTCTCACTTTTGACCGGAGTCACCTAGTGCAG”, the binding signal is 8930 fluorescence intensity (a.u.).

Take “GAATAAAACGAACGGTCAAACATGTTTAAAAAAGTCAACGCGGAGTCACCTAGTGCAG”: the binding signal is 10300 fluorescence intensity (a.u.).

With “ACCGACCAATGATGATTTGATTTCCCACTGGACTGGTATACGGAGTCACCTAGTGCAG”, the binding signal was 9440 fluorescence intensity (a.u.).

Turning to “TCGTCGTCGTCGTCGTCGCCGCCGCGGCCTGCAATTGCAACGGAGTCACCTAGTGCAG”, the binding signal was 9050 fluorescence intensity (a.u.).

In the case of “CCTTCTCGCAGTCGCCGCACTCGCCGTCCTCCAGTGGCCTCGGAGTCACCTAGTGCAG”, the binding signal was 8860 fluorescence intensity (a.u.).

“GGAGCCGCCGGGGCGGGTGGTGGGTGGAAGGCTCCATTGCCGGAGTCACCTAGTGCAG”: the binding signal was 13800 fluorescence intensity (a.u.).

For “AGAAGGAGGAGGAGGAGGAGGAGGAGGAGGGGAGGAGAGCCGGAGTCACCTAGTGCAG”, the binding signal is 10400 fluorescence intensity (a.u.).

As for “CCATTCGTGCGCCCTCAGCCATTGTACCCCTTTTCCACTCCGGAGTCACCTAGTGCAG”, the binding signal was 9970 fluorescence intensity (a.u.).

With “ATTATGCATGTGATTTGCCATTTTACAGATTATCTCTTTTCGGAGTCACCTAGTGCAG”, the binding signal was 9590 fluorescence intensity (a.u.).

With “TAATGACTTTTTCTTTTGTTTTTGGTGGCTTAACTTCATCCGGAGTCACCTAGTGCAG”, the binding signal is 9880 fluorescence intensity (a.u.).
